The list shows a part of the results. The main result of the screen is listed elsewhere. These columns were measured beside it and carry no call. Most of these compounds were active or inconclusive in the main read-out, so they are no random draw. Potencies come from curve fits of mixed quality, noted in brackets.
Assay: qHTS Assay for Identifying the Cell-Membrane Permeable IMPase Inhibitors
Conditions: CHO-M1 cells, IP1 accumulation, HTRF TR-FRET ratio; measured here: donor channel 620 nm AC50

SMILES	AC50
O=C(Nc1cc(C(=O)N2CCOCC2)ccc1N1CCCC1)c1cccs1	5.62 µM [falling, single point]
Nn1c(SCC(=O)Nc2ccc(Oc3ccccc3)cc2)nnc1C1CC1	25.1 µM [falling, single point]
COc1ccc(-c2nc(-c3ccc(Br)cc3)no2)c(OC)c1	5.01 µM [falling, single point]
Cc1ccc(-n2nnnc2-c2cnn(-c3ccc(F)cc3)c2C(F)(F)F)cc1	2 µM [falling, partial curve]
Cc1ccc(Nc2c(-c3cccnc3)nc3ccc(Br)cn23)cc1	11.2 µM [rising, single point]
Cc1ccccc1N/C=C/C(=C(C#N)C#N)N(C)C	31.6 µM [falling, single point]
CCC(C)N1C(=O)CCC1C(=O)O (configuration not stated)	0.501 µM [falling, partial curve, poor fit]
O=C(CC12CC3CC(CC(C3)C1)C2)NCO	5.62 µM [rising, single point]
O=C(Nc1cccc(C(F)(F)F)c1)C12CC3CC(CC(C3)C1)C2	0.01 µM [falling, full curve, poor fit]
Cc1ccc(NCc2nnc(SCC(=O)c3ccccc3)o2)c(C)c1	0.0251 µM [rising, full curve, poor fit]
CCc1ccc(-c2nc(CN3CCC(C(=O)NCc4ccccc4OC)CC3)c(C)o2)cc1	3.98 µM [falling, full curve]
COc1ccc(OC)c(C2C(C(=O)Nc3ccc(F)cc3)=C(C)Nc3nc(CCCO)nn32)c1 (configuration not stated)	1.26 µM [falling, single point]
CCN1CCN(C(=O)Cn2ncc3ccsc3c2=O)CC1	35.5 µM [falling, partial curve, poor fit]
CCCCCCn1c(N2CCN(c3cccc(Cl)c3)CC2)nc2c1c(=O)[nH]c(=O)n2C	0.0158 µM [rising, full curve, poor fit]
Cc1ccccc1NC(=O)CSc1nc2cc3c(cc2cc1C)CCC3	31.6 µM [rising, single point]
CCOc1ncccc1C(=O)NCc1ccc(OC)cc1	0.316 µM [falling, partial curve, poor fit]
C=CCn1c(NCCOC)nc2c1c(=O)n(C)c(=O)n2C	0.0251 µM [rising, full curve, poor fit]
CCn1cc(S(=O)(=O)CC(=O)Nc2cc(C)on2)c2ccccc21	15.8 µM [rising, single point]
Fc1ccc(/C=C/c2nnc(-c3cccs3)o2)cc1	35.5 µM [rising, single point]
COc1ccc2cc(CN(Cc3cccnc3)Cc3nnnn3Cc3ccccc3)c(=O)[nH]c2c1	3.98 µM [falling, partial curve, poor fit]
CNC(=O)c1ccc(N(Cc2ccccc2)S(C)(=O)=O)cc1	5.62 µM [falling, single point]

Fetched by structure from above (two):
SMILES	AC50
Cc1ccc(Nc2c(-c3cccnc3)nc3ccc(Br)cn23)cc1	11.2 µM [rising, single point]
CCc1ccc(-c2nc(CN3CCC(C(=O)NCc4ccccc4OC)CC3)c(C)o2)cc1	3.98 µM [falling, full curve]

Going on with the list.

SMILES	AC50
CCOc1ccc(-n2nc3ccc(NC(=O)c4ccc(-c5cccc(Cl)c5)o4)cc3n2)cc1	2.24 µM [falling, partial curve, poor fit]
O=S(=O)(c1ccc2c(c1)OCCO2)N1CCC(n2cnc3cc(F)ccc32)CC1	3.98 µM [rising, full curve, poor fit]
CC(=O)c1sc2nc(SCC(=O)N3CCCCC3)[nH]c(=O)c2c1C	12.6 µM [rising, partial curve]
Cc1ccc(-c2noc(CSc3nnc(Cc4cccs4)n3-c3ccccc3)n2)cc1	0.562 µM [falling, single point]
Cc1cc2ccccc2n2c(SCC(=O)Nc3cccc(C(F)(F)F)c3)nnc12	8.91 µM [rising, partial curve]
CCOC(=O)CSc1nc2ccccc2n1C(=O)OCC	0.01 µM [rising, full curve, poor fit]
COC(=O)c1ccccc1NC(=O)Nc1cccs1	31.6 µM [falling, single point]
O=C(c1noc2c1CCCC2)N1CCN(c2ccc(F)cc2)CC1	1.58 µM [falling, partial curve, poor fit]
COc1ccc(Cl)cc1NC(=O)c1ncn(-c2ccccc2)n1	25.1 µM [rising, single point]
COc1ccc(CNC(=O)CCSCc2cccc(Cl)c2)c(OC)c1	35.5 µM [falling, single point]
O=C(CSc1ncnc2c1oc1ccccc12)c1cccs1	20 µM [rising, partial curve]
Cc1c(NC(=O)c2cc(-c3cccs3)on2)c(=O)n(-c2ccccc2)n1C	0.00501 µM [rising, full curve, poor fit]
CCC(C)NC(=O)CSC1=Nc2ccccc2C2=NC(CC(=O)NCc3ccccc3)C(=O)N12 (configuration not stated)	17.8 µM [falling, partial curve]
CCOc1ccccc1NC(=O)C(Sc1ccccc1)c1ccccc1 (configuration not stated)	12.6 µM [rising, partial curve, poor fit]
N#Cc1cc2c(nc1SCC(=O)Nc1nccs1)CCCCC2	31.6 µM [rising, single point]
CCOC(=O)C1CCN(C(=O)c2cn(CCOC)c(=O)c3c2c2ccccc2n3C)CC1	0.316 µM [rising, full curve]
CC(C)CC(=O)NC(=S)Nc1ccccc1C(=O)Nc1ccccc1	5.01 µM [falling, partial curve, poor fit]
CCc1nc(N)c(C#N)c(-c2ccncc2)c1C	7.94 µM [falling, partial curve, poor fit]
Nc1ncnc2c1nc(Br)n2[C@@H]1O[C@H]2COP(=O)(O)O[C@@H]2[C@H]1O	1.26 µM [falling, full curve, poor fit]
O=C(Nc1cccc(NC(=O)c2cccs2)c1)c1ccco1	0.0251 µM [rising, full curve, poor fit]
O=C(Cn1nnc(-c2ccccc2F)n1)Nc1cccc2ncccc12	0.0631 µM [falling, full curve, poor fit]

— PubChem BioAssay AID901 (National Center for Advancing Translational Sciences (NCATS), 2007)
